The target in experiment [1] is T lymphoma invasion and metastasis 1 (Tiam1) (mouse (endogenous in Th17 cells from C57BL/6 mice)) (UniProt Q60610). Description: co-IP; cytoplasmic and nuclear extracts (NE-PER kit, 100 μg each) of mouse Th17 cells polarized for 48 h; rabbit anti-Tiam1 (sc-872) or rabbit IgG overnight at 4 °C, Protein A magnetic beads; immunoblot for Rac1 and RORγ.
For experiment [2] the target is unchanged. Put plainly: proximity ligation; Duolink PLA on PFA-fixed, permeabilized mouse Th17 cells harvested 0, 6, 12, 24 and 48 h after the start of differentiation; rabbit anti-Tiam1 with mouse anti-Rac1 or mouse anti-RORγ; confocal imaging, 10 cells per time point.

Amino acid sequences for entries named in this document (tags omitted). A change or cut given only in a name is not applied to a line headed by its entry. Chains listed by the source or under a name are the forms on record and can include a tag or linker.
UniProt Q60610: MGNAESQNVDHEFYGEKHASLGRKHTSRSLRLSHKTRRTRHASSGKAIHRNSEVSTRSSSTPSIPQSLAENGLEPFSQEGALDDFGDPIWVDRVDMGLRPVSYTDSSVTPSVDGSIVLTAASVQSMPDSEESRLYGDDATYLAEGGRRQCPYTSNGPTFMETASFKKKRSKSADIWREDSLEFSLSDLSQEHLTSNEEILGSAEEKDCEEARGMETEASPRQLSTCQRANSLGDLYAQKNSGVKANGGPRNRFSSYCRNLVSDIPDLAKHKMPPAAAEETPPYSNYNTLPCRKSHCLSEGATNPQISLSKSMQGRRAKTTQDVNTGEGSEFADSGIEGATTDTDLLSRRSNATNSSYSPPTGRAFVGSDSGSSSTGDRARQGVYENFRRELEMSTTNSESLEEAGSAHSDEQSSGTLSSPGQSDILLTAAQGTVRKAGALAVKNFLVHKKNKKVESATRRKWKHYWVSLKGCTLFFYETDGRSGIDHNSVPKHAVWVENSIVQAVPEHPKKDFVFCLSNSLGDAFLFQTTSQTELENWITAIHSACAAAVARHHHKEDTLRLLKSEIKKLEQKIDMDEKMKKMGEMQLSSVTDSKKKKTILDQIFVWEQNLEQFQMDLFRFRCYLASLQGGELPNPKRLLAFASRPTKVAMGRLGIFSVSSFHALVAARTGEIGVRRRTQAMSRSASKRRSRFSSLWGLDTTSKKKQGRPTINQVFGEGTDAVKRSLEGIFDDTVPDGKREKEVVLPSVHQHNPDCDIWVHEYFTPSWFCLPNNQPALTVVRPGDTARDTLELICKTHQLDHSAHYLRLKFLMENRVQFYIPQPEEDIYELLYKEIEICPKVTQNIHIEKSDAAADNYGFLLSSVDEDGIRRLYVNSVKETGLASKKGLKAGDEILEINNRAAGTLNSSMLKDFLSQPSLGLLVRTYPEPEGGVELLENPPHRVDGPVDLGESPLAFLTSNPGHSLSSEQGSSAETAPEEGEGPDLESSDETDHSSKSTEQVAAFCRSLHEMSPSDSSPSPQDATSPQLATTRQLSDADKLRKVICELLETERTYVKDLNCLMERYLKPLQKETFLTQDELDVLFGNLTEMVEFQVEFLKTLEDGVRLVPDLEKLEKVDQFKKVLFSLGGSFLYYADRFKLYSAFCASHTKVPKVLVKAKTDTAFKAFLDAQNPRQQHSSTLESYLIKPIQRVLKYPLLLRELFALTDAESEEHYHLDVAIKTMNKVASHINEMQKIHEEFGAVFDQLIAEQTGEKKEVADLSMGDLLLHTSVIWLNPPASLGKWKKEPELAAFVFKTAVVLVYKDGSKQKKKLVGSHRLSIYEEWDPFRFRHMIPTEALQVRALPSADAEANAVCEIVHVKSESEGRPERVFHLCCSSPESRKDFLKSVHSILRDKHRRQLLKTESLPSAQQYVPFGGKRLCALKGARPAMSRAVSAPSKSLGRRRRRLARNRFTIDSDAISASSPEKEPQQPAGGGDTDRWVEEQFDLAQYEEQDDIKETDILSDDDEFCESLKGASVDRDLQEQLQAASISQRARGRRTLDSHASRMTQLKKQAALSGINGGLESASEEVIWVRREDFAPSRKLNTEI
RAR-related orphan receptor gamma (RORγt) (P51450-2, form named): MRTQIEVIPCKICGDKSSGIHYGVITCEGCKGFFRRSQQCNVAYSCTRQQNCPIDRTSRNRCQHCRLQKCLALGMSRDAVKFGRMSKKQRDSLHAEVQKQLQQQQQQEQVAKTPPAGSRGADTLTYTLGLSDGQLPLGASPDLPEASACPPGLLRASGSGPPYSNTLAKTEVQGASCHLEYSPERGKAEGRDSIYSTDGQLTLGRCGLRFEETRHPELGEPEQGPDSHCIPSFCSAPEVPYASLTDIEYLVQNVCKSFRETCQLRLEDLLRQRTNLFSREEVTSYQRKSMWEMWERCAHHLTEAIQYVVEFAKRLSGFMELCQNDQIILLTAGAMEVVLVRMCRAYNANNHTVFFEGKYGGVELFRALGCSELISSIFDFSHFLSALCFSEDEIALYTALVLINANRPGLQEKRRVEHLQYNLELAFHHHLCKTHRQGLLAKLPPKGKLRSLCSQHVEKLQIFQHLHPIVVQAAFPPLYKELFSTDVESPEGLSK

Results are given in words; binding and its absence hold for the method and conditions named. In cells and extracts the contact can be indirect. Some binding calls cover weakened binding; strength is not graded here.

With “RAR-related orphan receptor gamma (RORγt) (from UniProt P51450-2 1-495)”, the binding result in experiment [1] and in experiment [2] was “binds” each time.
